# Data as given in the supplement of paper PMC8728848.
# This is one part of the list.
# B1: CD72 ectodomain (Homo sapiens), P21854 (protein)
# chain: RYLQVSQQLQQTNRVLEVTNSSLRQQLRLKITQLGQSAEDLQGSRRELAQSQEALQVEQRAHQAAEGQLQACQADRQKTKETLQSEEQQRRALEQKLSNMENRLKPFFTCGSADTCCPSGWIMHQKSCFYISLTSKNWQESQKQCETLSSKLATFSEIYPQSHSYYFLNSLLPNGGSGNSYWTGLSSNKDWKLTDDTQRTRTYAQSSKCNKVHKTWSWWTLESESCRSSLPYICEMTAFRFPD
# Tests used:
# Experiment in all cases: glycan array binding signal (z-score within array); higher = stronger binding
# Conditions in all cases: glycan notation: IUPAC condensed, linker removed
# [1] = biological target: Gal(b1-4)GlcNAc(b1-3)Gal(b1-4)Glc
# Method in brief: (§1)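 The binding signal is a Z-score computed within each array. Data were drawn from 3228 arrays in the Consortium for Functional Glycomics database, restricted to those with a known protein sequence. Scores were averaged over arrays of the same protein sequence at different concentrations or buffers, and over linkers, and negative values can be taken as non-binding.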
# [2] = biological target: Gal(b1-4)GlcNAc(b1-3)Gal(b1-4)GlcNAc
# Method in brief: as §1
# [3] = biological target: Gal(b1-4)GlcNAc(b1-3)Gal(b1-4)GlcNAc(b1-3)Gal(b1-4)GlcNAc
# Method in brief: as §1
# [4] = biological target: Gal(b1-4)GlcNAc(b1-3)Gal(b1-4)[Fuc(a1-3)GlcNAc(b1-6)]Gal(b1-4)Glc
# Method in brief: as §1
# [5] = biological target: Gal(b1-4)GlcNAc(b1-3)Gal(b1-4)[Fuc(a1-3)]GlcNAc(b1-3)Gal(b1-4)[Fuc(a1-3)]GlcNAc
# Method in brief: as §1
# [6] = biological target: Gal(b1-4)GlcNAc(b1-3)GalNAc
# Method in brief: as §1
# [7] = biological target: Gal(b1-4)GlcNAc(b1-3)[Gal(b1-4)GlcNAc(b1-6)]Gal(b1-4)GlcNAc
# Method in brief: as §1
# [8] = biological target: Gal(b1-4)GlcNAc(b1-3)[Gal(b1-4)GlcNAc(b1-6)]GalNAc
# Method in brief: as §1
# [9] = biological target: Gal(b1-4)GlcNAc(b1-3)[GlcNAc(b1-6)]Gal(b1-4)GlcNAc
# Method in brief: as §1
# [10] = biological target: Gal(b1-4)GlcNAc(b1-6)Gal(b1-4)GlcNAc
# Method in brief: as §1
# [11] = biological target: Gal(b1-4)GlcNAc(b1-6)GalNAc
# Method in brief: as §1
# [12] = biological target: Gal(b1-4)GlcNAc(b1-6)[Gal(b1-3)]GalNAc
# Method in brief: as §1
# Gal(b1-6)Gal = biological target: Gal(b1-6)Gal
# Method in brief: as §1
# Gal3S(b1-3)GalNAc = biological target: Gal3S(b1-3)GalNAc
# Method in brief: as §1
# Gal3S(b1-3)GlcNAc = biological target: Gal3S(b1-3)GlcNAc
# Method in brief: as §1
# [13] = biological target: Gal3S(b1-3)[Fuc(a1-4)]GlcNAc
# Method in brief: as §1
# Gal3S(b1-4)Glc = biological target: Gal3S(b1-4)Glc
# Method in brief: as §1
# Gal3S(b1-4)Glc6S = biological target: Gal3S(b1-4)Glc6S
# Method in brief: as §1
# Gal3S(b1-4)GlcNAc = biological target: Gal3S(b1-4)GlcNAc
# Method in brief: as §1
# Gal3S(b1-4)GlcNAc6S = biological target: Gal3S(b1-4)GlcNAc6S
# Method in brief: as §1
# [14] = biological target: Gal3S(b1-4)[Fuc(a1-3)]Glc
# Method in brief: as §1
# [15] = biological target: Gal3S(b1-4)[Fuc(a1-3)]Glc6S
# Method in brief: as §1
# Gal3S4S(b1-4)GlcNAc = biological target: Gal3S4S(b1-4)GlcNAc
# Method in brief: as §1
# Gal3S6S(b1-4)GlcNAc = biological target: Gal3S6S(b1-4)GlcNAc
# Method in brief: as §1
# Gal3S6S(b1-4)GlcNAc6S = biological target: Gal3S6S(b1-4)GlcNAc6S
# Method in brief: as §1
# Gal4S(b1-4)GlcNAc = biological target: Gal4S(b1-4)GlcNAc
# Method in brief: as §1
# Gal4S6S(b1-4)GlcNAc = biological target: Gal4S6S(b1-4)GlcNAc
# Method in brief: as §1
# Gal6S(b1-3)GlcNAc = biological target: Gal6S(b1-3)GlcNAc
# Method in brief: as §1
# Gal6S(b1-3)GlcNAc6S = biological target: Gal6S(b1-3)GlcNAc6S
# Method in brief: as §1
# Gal6S(b1-4)Glc = biological target: Gal6S(b1-4)Glc
# Method in brief: as §1
# Gal6S(b1-4)Glc6S = biological target: Gal6S(b1-4)Glc6S
# Method in brief: as §1
# Gal6S(b1-4)GlcNAc = biological target: Gal6S(b1-4)GlcNAc
# Method in brief: as §1
# Gal6S(b1-4)GlcNAc6S = biological target: Gal6S(b1-4)GlcNAc6S
# Method in brief: as §1
# GalNAc(a1-3)Gal = biological target: GalNAc(a1-3)Gal
# Method in brief: as §1
# GalNAc(a1-3)GalNAc = biological target: GalNAc(a1-3)GalNAc
# Method in brief: as §1
# [16] = biological target: GalNAc(a1-3)GalNAc(b1-3)Gal(a1-4)Gal(b1-4)Glc
# Method in brief: as §1
# [17] = biological target: GalNAc(a1-3)GalNAc(b1-3)Gal(a1-4)Gal(b1-4)GlcNAc
# Method in brief: as §1
binder,measurement,setting,value
B1,glycan array binding signal (z-score),[1],-0.735
same,glycan array binding signal (z-score),[2],-0.395
same,glycan array binding signal (z-score),[3],-0.684
same,glycan array binding signal (z-score),[4],-0.359
same,glycan array binding signal (z-score),[5],-1.24
same,glycan array binding signal (z-score),[6],0.076
same,glycan array binding signal (z-score),[7],-0.055
same,glycan array binding signal (z-score),[8],-0.646
same,glycan array binding signal (z-score),[9],1.84
same,glycan array binding signal (z-score),[10],-2.09
same,glycan array binding signal (z-score),[11],0.142
same,glycan array binding signal (z-score),[12],0.369
same,glycan array binding signal (z-score),Gal(b1-6)Gal,-1.05
same,glycan array binding signal (z-score),Gal3S(b1-3)GalNAc,1.38
same,glycan array binding signal (z-score),Gal3S(b1-3)GlcNAc,0.422
same,glycan array binding signal (z-score),[13],-0.495
same,glycan array binding signal (z-score),Gal3S(b1-4)Glc,0.022
same,glycan array binding signal (z-score),Gal3S(b1-4)Glc6S,-0.777
same,glycan array binding signal (z-score),Gal3S(b1-4)GlcNAc,-0.696
same,glycan array binding signal (z-score),Gal3S(b1-4)GlcNAc6S,1.19
same,glycan array binding signal (z-score),[14],-0.207
same,glycan array binding signal (z-score),[15],0.788
same,glycan array binding signal (z-score),Gal3S4S(b1-4)GlcNAc,0.802
same,glycan array binding signal (z-score),Gal3S6S(b1-4)GlcNAc,-0.166
same,glycan array binding signal (z-score),Gal3S6S(b1-4)GlcNAc6S,-2.15
same,glycan array binding signal (z-score),Gal4S(b1-4)GlcNAc,0.2
same,glycan array binding signal (z-score),Gal4S6S(b1-4)GlcNAc,0.281
same,glycan array binding signal (z-score),Gal6S(b1-3)GlcNAc,-0.189
same,glycan array binding signal (z-score),Gal6S(b1-3)GlcNAc6S,0.798
same,glycan array binding signal (z-score),Gal6S(b1-4)Glc,-0.925
same,glycan array binding signal (z-score),Gal6S(b1-4)Glc6S,-0.356
same,glycan array binding signal (z-score),Gal6S(b1-4)GlcNAc,-0.355
same,glycan array binding signal (z-score),Gal6S(b1-4)GlcNAc6S,0.118
same,glycan array binding signal (z-score),GalNAc(a1-3)Gal,0.455
same,glycan array binding signal (z-score),GalNAc(a1-3)GalNAc,0.074
same,glycan array binding signal (z-score),[16],0.806
same,glycan array binding signal (z-score),[17],-0.608

# Random excerpt: 2 records from the list.
binder,measurement,setting,value
B1,glycan array binding signal (z-score),Gal3S(b1-4)Glc,0.022
same,glycan array binding signal (z-score),Gal(b1-6)Gal,-1.05
